Substitutions are numbered along the chain they refer to. Results are given in words; binding and its absence hold for the method and conditions named. In cells and extracts the contact can be indirect. A yes stands for co-enrichment or nearness to the bait. Other partners may have been found. No binding means not detected with the bait. Tags and fused reporters may be left off the sequences shown.
B1: Ago3, Q7PLK0 1-867 (protein)
chain: MSGRGNLLSLFNKNAGNMGKSISSKDHEIDSGLDFNNSESSGERLLSSHNIETDLITTLQHVNISVGRGRARLIDTLKTDDHTSNQFITSESKENITKKTKGPESEAIASENGLFFPDLIYGSKGSSVNIYCNYLKLTTDESKGVFNYEVRFFPPIDSVHLRIKYLNDHKDKLGGTKTFDGNTLYLPILLPNKMTVFISKAEDVELQIRILYKKKEEMRNCTQLYNILFDRVMKVLNYVKFDRKQFDPSRPKIIPLAKLEVWPGYVTAVDEYKGGLMLCCDVSHRILCQKTVLEMLVDLYQQNVEHYQESARKMLVGNIVLTRYNNRTYKINDICFDQNPTCQFEIKTGCTSYVEYYKQYHNINIKDVNQPLIYSIKKSRGIPAERENLQFCLIPELCYLTGLRDEVRSDNKLMREIATFTRVSPNQRQMALNKFYENVSNTPAAQEILNSWGLSLTNNSNKISGRQMDIEQIYFSKISVSAGRSAEFSKHAVTNEMLKVVHLSKWIIIHLRNYRQAATSLLDNMKQACESLGMNISNPTMISLDHDRIDAYIQALRRNITMNTQMVVCICHNRRDDRYAAIKKICCSEIPIPSQVINAKTLQNDLKIRSVVQKIVLQMNCKLGGSLWTVKIPFKNVMICGIDSYHDPSNRGNSVAAFVASINSSYSQWYSKAVVQTKREEIVNGLSASFEIALKMYRKRNGKLPTNIIIYRDGIGDGQLYTCLNYEIPQFEMVCGNRIKISYIVVQKRINTRIFSGSGIHLENPLPGTVVDQHITKSNMYDFFLVSQLVRQGTVTPTHYVVLRDDCNYGPDIIQKLSYKLCFLYYNWAGTVRIPACCMYAHKLAYLIGQSIQRDVAEALSEKLFYL
B2: Ago3 (protein, UniProt Q7PLK0 1-867)
chain: B1 chain

Key:
[1] = biological target: T1, GFP-Vas^WT (Drosophila melanogaster), P09052; assay: affinity purification with mass spectrometry; GFP-trap magnetic agarose beads on 20 mg ovarian protein lysate, 4° for 1 hr; washes up to 1 M NaCl, no cross-linking reagent; GFP-expressing flies as negative control; two biological replicates; conditions: remark: other sources report otherwise
T1 chain: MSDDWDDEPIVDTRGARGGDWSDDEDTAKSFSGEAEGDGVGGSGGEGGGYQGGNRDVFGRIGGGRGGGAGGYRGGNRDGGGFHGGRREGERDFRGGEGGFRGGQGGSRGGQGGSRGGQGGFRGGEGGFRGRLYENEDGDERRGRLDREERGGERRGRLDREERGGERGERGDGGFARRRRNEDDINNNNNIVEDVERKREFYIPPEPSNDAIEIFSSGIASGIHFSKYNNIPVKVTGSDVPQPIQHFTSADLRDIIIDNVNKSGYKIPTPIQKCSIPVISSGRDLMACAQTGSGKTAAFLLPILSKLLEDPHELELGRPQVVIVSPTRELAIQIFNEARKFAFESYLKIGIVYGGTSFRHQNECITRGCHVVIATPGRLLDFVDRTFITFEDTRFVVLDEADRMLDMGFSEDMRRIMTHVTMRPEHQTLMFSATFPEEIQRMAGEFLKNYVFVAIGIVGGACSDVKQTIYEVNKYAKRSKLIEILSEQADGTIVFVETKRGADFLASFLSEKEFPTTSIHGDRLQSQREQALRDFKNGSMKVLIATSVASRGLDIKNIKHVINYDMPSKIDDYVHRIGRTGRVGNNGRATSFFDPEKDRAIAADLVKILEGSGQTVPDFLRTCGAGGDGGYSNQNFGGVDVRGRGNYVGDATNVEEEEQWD

[2] = biological target: T2, GFP-Vas^DQAD (Drosophila melanogaster) (UniProt P09052); assay: as above
T2 sequence: T1 chain with E400Q

| Binder | binding [1] | binding [2] |
| --- | --- | --- |
| B1 | no binding | – |
| B2 | – | no binding |

Reference: publication PMC6827371
